# Results are given in words; binding and its absence hold for the method and conditions named. In cells and extracts the contact can be indirect. These calls come from enrichment with a bait or labelling near it, and not all partners need be listed.
# By UniProt entry, the sequences of proteins in these tests, tags left out. Residues count along the entry.
# UniProt P0CS90, residues 24-654: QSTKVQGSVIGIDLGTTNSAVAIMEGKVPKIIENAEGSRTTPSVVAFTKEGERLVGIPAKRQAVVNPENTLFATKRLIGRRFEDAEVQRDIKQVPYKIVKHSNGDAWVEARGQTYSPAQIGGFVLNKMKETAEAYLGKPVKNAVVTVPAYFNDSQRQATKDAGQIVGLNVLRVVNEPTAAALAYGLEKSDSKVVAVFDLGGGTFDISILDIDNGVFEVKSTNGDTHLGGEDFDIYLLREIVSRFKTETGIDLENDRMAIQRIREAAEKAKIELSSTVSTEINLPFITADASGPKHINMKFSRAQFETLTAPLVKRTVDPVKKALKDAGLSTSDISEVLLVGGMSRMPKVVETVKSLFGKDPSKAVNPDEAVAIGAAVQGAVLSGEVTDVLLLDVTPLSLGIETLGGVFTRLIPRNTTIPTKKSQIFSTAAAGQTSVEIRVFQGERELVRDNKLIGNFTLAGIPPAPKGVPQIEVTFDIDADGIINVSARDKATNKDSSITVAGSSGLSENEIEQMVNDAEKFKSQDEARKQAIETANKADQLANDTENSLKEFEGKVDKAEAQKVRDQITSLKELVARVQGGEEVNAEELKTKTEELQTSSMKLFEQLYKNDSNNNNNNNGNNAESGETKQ
# UniProt P00830, residues 34-511: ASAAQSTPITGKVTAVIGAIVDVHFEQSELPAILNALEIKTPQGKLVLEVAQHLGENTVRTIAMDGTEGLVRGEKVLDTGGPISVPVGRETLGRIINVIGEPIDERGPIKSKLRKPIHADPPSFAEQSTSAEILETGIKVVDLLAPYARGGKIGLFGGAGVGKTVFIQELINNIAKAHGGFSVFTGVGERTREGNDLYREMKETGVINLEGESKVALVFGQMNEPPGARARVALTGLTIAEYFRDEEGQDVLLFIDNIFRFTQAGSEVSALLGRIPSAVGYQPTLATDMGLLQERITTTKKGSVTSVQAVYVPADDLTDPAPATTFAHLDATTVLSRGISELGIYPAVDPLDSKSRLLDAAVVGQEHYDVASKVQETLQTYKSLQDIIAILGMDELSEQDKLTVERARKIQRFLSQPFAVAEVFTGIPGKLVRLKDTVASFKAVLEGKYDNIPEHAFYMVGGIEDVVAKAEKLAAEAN
# UniProt P07251, residues 36-545: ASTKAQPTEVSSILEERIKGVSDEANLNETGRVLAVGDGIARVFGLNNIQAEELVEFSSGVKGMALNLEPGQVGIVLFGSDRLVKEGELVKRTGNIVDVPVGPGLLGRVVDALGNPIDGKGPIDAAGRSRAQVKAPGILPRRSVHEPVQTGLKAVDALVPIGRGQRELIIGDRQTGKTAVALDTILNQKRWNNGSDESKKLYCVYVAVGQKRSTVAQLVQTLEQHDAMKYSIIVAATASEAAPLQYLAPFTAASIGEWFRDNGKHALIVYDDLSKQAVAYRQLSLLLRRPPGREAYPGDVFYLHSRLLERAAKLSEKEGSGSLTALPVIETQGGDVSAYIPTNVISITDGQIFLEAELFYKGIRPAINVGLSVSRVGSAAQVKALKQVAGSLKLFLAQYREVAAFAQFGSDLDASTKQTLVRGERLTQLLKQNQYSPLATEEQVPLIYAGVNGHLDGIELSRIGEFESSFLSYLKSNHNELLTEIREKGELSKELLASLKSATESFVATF
# Target: His-tagged mitochondrial Hsp70 (mtHsp70His) (S. cerevisiae) (UniProt P0CS90)
# Assay: affinity purification with mass spectrometry; mtHsp70His purified on Ni-NTA agarose from digitonin-lysed mitochondria of SILAC-labelled ρ+ and ρ0 cells, in the absence of ATP; elution fractions mixed; ratios ρ0 versus ρ+
row,binding,Substance
1,binds,Atp2 (subunit β of the ATP synthase) (from UniProt P00830 34-511)
2,binds,Atp1 (subunit α of the ATP synthase) (from UniProt P07251 36-545)

# — article PMC9810599
